According to PubChem BioAssay AID200 (DTP/NCI, 2004):
The list does not hold the whole screen: it is rich in T/C values a quarter to a half above the control, in often repeated tests (any T/C) and in doses without a T/C. Other doses and runs of a compound stand elsewhere. T/C: endpoint of the treated group in % of that of the vehicle group. Some entries give survivors of the animals treated and no T/C: the source files T/C as zero there, which appears to mark a toxic dose or a test without result, not a measured value. Some doses without a T/C left all or most animals alive at the check, yet need not have been tolerated: the source hardly ever lists a survival T/C far under the control, and the zero likely stands for such cases as well. Counts of survivors are from the toxicity check (mostly the fifth day) where no day follows; animals may have died later. Schedules are NCI's codes, taken here to give the interval after Q, in days (D) or hours (H), and the number of doses after X. Some doses were run more than once; the values are given in rising order. Counts like (3×) count equal records among those shown. Where survival is the endpoint, this PubChem deposit counts one and a half times the control or more as active, and values a quarter to a half above the control carry no call in these data; other NCI protocols may use other cut-offs. Some T/C values are followed by the survivors on the day toxicity was checked, most often the fifth; where none is given, no animal had died by that day.

Tested on: B6C3F1 mice, B16 melanoma ip, median survival T/C
Assay: NCI In Vivo Anticancer Drug Screen. Data for tumor model B16 Melanoma (intraperitoneal) in B6C3F1 mice
Conditions: T/C endpoint: median survival time, higher T/C = longer survival
Summary of the method: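 Antitumor effect was judged in mice with transplanted tumors by dividing the treated group's survival measure by that of vehicle controls.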

[1] = dose: 2.0 mg/kg/injection, schedule: Q01DX009 (ip), vehicle: saline
[2] = dose: 4.0 mg/kg/injection, schedule: Q01DX009 (ip), vehicle: saline
[3] = dose: 12.0 mg/kg/injection, schedule: Q01DX001 (ip), vehicle: water
[4] = dose: 24.0 mg/kg/injection, schedule: Q01DX001 (ip), vehicle: water

COc1cccc2c1C(=O)c1c(O)c3c(c(O)c1C2=O)C[C@@](O)(C(=O)CO)C[C@@H]3OC1CC(N)C(O)C(C)O1 (stereo not given in full) was tested, and the T/C (dose: 0.12 mg/kg/injection, schedule: Q01DX009 (ip), vehicle: saline) was 138 % of control, the T/C (dose: 0.25 mg/kg/injection, schedule: Q01DX009 (ip), vehicle: saline) was 149, 161, 165, 193, 203 (2×), 203 [9 of 10 alive], 205, 239 % of control and the T/C (dose: 0.5 mg/kg/injection, schedule: Q01DX001 (ip), vehicle: saline) was 127 % of control. For the same compound, the T/C (dose: 0.5 mg/kg/injection, schedule: Q01DX001 (ip), vehicle: water) was 141, 148, 155, 176 % of control, the T/C (dose: 0.5 mg/kg/injection, schedule: Q01DX009 (ip), vehicle: saline) was 167, 178, 223, 234, 234 [9 of 10 alive], 236, 244, 260, 271, 284, 329, 331 % of control and the T/C (dose: 1.0 mg/kg/injection, schedule: Q01DX001 (ip), vehicle: saline) was 149 % of control. The T/C (dose: 1.0 mg/kg/injection, schedule: Q01DX001 (ip), vehicle: water, evaluated on day 45) was 114 % of control, the T/C (dose: 1.0 mg/kg/injection, schedule: Q01DX001 (ip), vehicle: water, evaluated on day 60) was 146, 154, 155, 164, 165, 169, 173, 179, 185, 189, 208 % of control and the T/C (dose: 1.0 mg/kg/injection, schedule: Q01DX009 (ip), vehicle: saline) was 187, 191 [9 of 10 alive], 205, 219, 242, 272, 289 [9 of 10 alive], 301 [9 of 10 alive], 302, 311 [9 of 10 alive], 333, 346, 347, 348, 357, 363 % of control. For the same compound, the T/C (dose: 1.5 mg/kg/injection, schedule: Q01DX001 (ip), vehicle: water) was 185, 196, 200 (2×), 213 % of control, the T/C (dose: 2.0 mg/kg/injection, schedule: Q01DX001 (ip), vehicle: water, evaluated on day 45) was 114 % of control and the T/C (dose: 2.0 mg/kg/injection, schedule: Q01DX001 (ip), vehicle: water, evaluated on day 60) was 184, 185 (2×), 187, 195, 196, 204, 207 [9 of 10 alive], 221, 225, 304 % of control. The T/C (dose: 2.0 mg/kg/injection, schedule: Q01DX005 (iv), vehicle: saline) was 132 % of control, the T/C [1] was 122, 217, 219, 222, 232, 271, 277, 289 [9 of 10 alive], 310, 316 [9 of 10 alive], 328, 346, 347 [9 of 10 alive], 355, 363 % of control and the survivor count [1] was 10 of 10. For the same compound, the T/C (dose: 3.0 mg/kg/injection, schedule: Q01DX001 (ip), vehicle: water) was 196, 206, 207, 213, 317 % of control, the T/C (dose: 4.0 mg/kg/injection, schedule: Q01DX001 (ip), vehicle: saline, evaluated on day 5) was 191 and 242 % of control and the T/C (dose: 4.0 mg/kg/injection, schedule: Q01DX001 (ip), vehicle: saline, evaluated on day 60) was 209 and 250 % of control. The T/C (dose: 4.0 mg/kg/injection, schedule: Q01DX001 (ip), vehicle: water, evaluated on day 45) was 120 % of control, the T/C (dose: 4.0 mg/kg/injection, schedule: Q01DX001 (ip), vehicle: water, evaluated on day 60) was 125, 198, 199, 200, 226, 237, 247, 261, 277, 292, 304 % of control and the survivor count (dose: 4.0 mg/kg/injection, schedule: Q01DX005 (ip), vehicle: saline) was 10 of 10. For the same compound, the survivor count (dose: 4.0 mg/kg/injection, schedule: Q01DX005 (iv), vehicle: saline) was 10 of 10, the T/C [2] was 94, 98, 259 % of control and the survivor count [2] was 9 of 10 and 10 of 10 (2×). The survivor count (dose: 4.0 mg/kg/injection, schedule: Q01DX009 (ip), vehicle: water) was 10 of 10, the T/C (dose: 4.5 mg/kg/injection, schedule: Q01DX001 (ip), vehicle: saline) was 147 % of control and the T/C (dose: 6.0 mg/kg/injection, schedule: Q01DX001 (ip), vehicle: water) was 220, 277, 317, 322, 337 % of control. For the same compound, the T/C (dose: 8.0 mg/kg/injection, schedule: Q01DX001 (ip), vehicle: saline, evaluated on day 5) was 178 and 278 % of control, the T/C (dose: 8.0 mg/kg/injection, schedule: Q01DX001 (ip), vehicle: saline, evaluated on day 60) was 233 and 300 % of control and the T/C (dose: 8.0 mg/kg/injection, schedule: Q01DX001 (ip), vehicle: water, evaluated on day 45) was 123 % of control. For the same compound, the T/C (dose: 8.0 mg/kg/injection, schedule: Q01DX001 (ip), vehicle: water, evaluated on day 60) was 178, 211, 241, 264, 297, 304, 309 (2×), 317, 320, 346 % of control, the T/C (dose: 8.0 mg/kg/injection, schedule: Q01DX001 (iv), vehicle: saline) was 136 % of control and the survivor count (dose: 8.0 mg/kg/injection, schedule: Q01DX005 (ip), vehicle: saline) was 7 of 10. For the same compound, the survivor count (dose: 8.0 mg/kg/injection, schedule: Q01DX005 (iv), vehicle: saline) was 8 of 10, the survivor count (dose: 8.0 mg/kg/injection, schedule: Q01DX009 (ip), vehicle: saline) was 8 of 10, 9 of 10, 10 of 10 and the survivor count (dose: 8.0 mg/kg/injection, schedule: Q01DX009 (ip), vehicle: water) was 8 of 10, 9 of 10, 10 of 10. The T/C [3] was 220, 317, 333, 337 % of control, the survivor count [3] was 6 of 10 and the T/C (dose: 16.0 mg/kg/injection, schedule: Q01DX001 (ip), vehicle: saline, evaluated on day 5) was 43 [8 of 9 alive] and 78 % of control. The T/C (dose: 16.0 mg/kg/injection, schedule: Q01DX001 (ip), vehicle: saline, evaluated on day 60) was 118 and 300 % of control, the T/C (dose: 16.0 mg/kg/injection, schedule: Q01DX001 (ip), vehicle: water, evaluated on day 45) was 158 % of control [9 of 10 alive] and the T/C (dose: 16.0 mg/kg/injection, schedule: Q01DX001 (ip), vehicle: water, evaluated on day 60) was 95 [8 of 10 alive], 112, 128, 139 [9 of 10 alive], 192, 295, 346 % of control. The survivor count (dose: 16.0 mg/kg/injection, schedule: Q01DX001 (ip), vehicle: water) was 7 of 10 and 8 of 10, the T/C (dose: 16.0 mg/kg/injection, schedule: Q01DX001 (iv), vehicle: saline) was 145 % of control [9 of 10 alive] and the survivor count (dose: 16.0 mg/kg/injection, schedule: Q01DX005 (ip), vehicle: saline) was 5 of 10. For the same compound, the survivor count (dose: 16.0 mg/kg/injection, schedule: Q01DX005 (iv), vehicle: saline) was 5 of 10, the survivor count (dose: 16.0 mg/kg/injection, schedule: Q01DX009 (ip), vehicle: saline) was 10 of 10 and the survivor count (dose: 18.0 mg/kg/injection, schedule: Q01DX001 (ip), vehicle: saline) was 6 of 10. The T/C [4] was 115, 151, 160 % of control, the survivor count [4] was 1 of 10 and 10 of 10 and the survivor count (dose: 32.0 mg/kg/injection, schedule: Q01DX001 (ip), vehicle: saline) was 9 of 10. The survivor count (dose: 32.0 mg/kg/injection, schedule: Q01DX001 (iv), vehicle: saline) was 8 of 10, the survivor count (dose: 36.0 mg/kg/injection, schedule: Q01DX001 (ip), vehicle: saline) was 4 of 10 and 10 of 10 and the survivor count (dose: 72.0 mg/kg/injection, schedule: Q01DX001 (ip), vehicle: saline) was 0 of 10 and 10 of 10. The T/C (dose: 40.0 micrograms/kg/injection, schedule: Q01DX005 (ip), vehicle: saline) was 135 % of control.

Nc1nc(SCc2ccccc2)c2ncn(C3OC(CO)CC3O)c2n1 (stereo not given) was tested, and the survivor count (dose: 200.0 mg/kg/injection, schedule: Q01DX009 (ip), vehicle: Klucel (hydroxypropylcellulose) (HPC)) was 10 of 10 and the survivor count (dose: 400.0 mg/kg/injection, schedule: Q01DX009 (ip), vehicle: Klucel (hydroxypropylcellulose) (HPC)) was 9 of 10.

In the case of NC(=O)c1ncn2c(=O)n(CCCl)nnc12, the T/C (dose: 6.25 mg/kg/injection, schedule: Q01DX009 (ip), vehicle: suspension in saline) is reported as 148 % of control and the survivor count (dose: 50.0 mg/kg/injection, schedule: Q01DX009 (ip), vehicle: suspension in saline) is reported as 10 of 10.

In the case of C[N+](C)=C1C=CC(=C2C=CSC=C2)C=C1, the survivor count (dose: 12.5 mg/kg/injection, schedule: Q01DX009 (ip), vehicle: saline) is reported as 7 of 9.
